In paper PMC11039524:
These are yes or no findings as the source states them, for the method shown. In cells and extracts the contact can be indirect. Some binding calls cover weakened binding; strength is not graded here.

By UniProt entry, the sequences of proteins in these tests, tags left out.
UniProt Q15370: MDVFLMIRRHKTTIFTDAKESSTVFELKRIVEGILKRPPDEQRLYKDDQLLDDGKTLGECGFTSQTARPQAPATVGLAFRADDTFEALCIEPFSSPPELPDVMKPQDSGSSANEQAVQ
UniProt Q8N726: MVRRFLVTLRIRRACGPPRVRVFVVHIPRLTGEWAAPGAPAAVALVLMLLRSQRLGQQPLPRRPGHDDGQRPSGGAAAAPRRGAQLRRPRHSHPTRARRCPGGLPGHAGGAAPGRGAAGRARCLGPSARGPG

Target: Elongin B (human (endogenous in MDA-MB-231)) (UniProt Q15370)
Assay: co-IP; endogenous proteins; MDA-MB-231 cells pretreated with MG-132 for 2 h; NP-40 lysis buffer (50 mM Tris-HCl pH 7.5, 150 mM NaCl, 0.5% NP-40, 1 mM PMSF); lysate incubated with anti-ELOB antibody or control IgG overnight at 4°C, protein A/G magnetic beads; immunoblot with anti-p14/ARF

binding: binds
Substance: p14/ARF (from UniProt Q8N726 1-132)
